Measured values: article PMC12699829, “Development of a glutamine-responsive MRI contrast agent” (Chemical Science, 2025)

B1: [Dy(DOTA-malN)]72-A126D: swArM: Dy(DOTA-mal^N) on T72C/A126D double variant of GlnBP (conjugate, UniProt P0AEQ3 23-248, looked up, variant T72C A126D)
Glutamine-binding periplasmic …: ADKKLVVATDTAFVPFEFKQGDKYVGFDVDLWAAIAKELKLDYELKPMDFSGIIPALQTKNVDLALAGITICDERKKAIDFSDGYYKSGLLVMVKANNNDVKSVKDLDGKVVAVKSGTGSVDYAKDNIKTKDLRQFPNIDNAYMELGTNRADAVLHDTPNILYFIKTAGNGQFKAVGDSLEAQQYGIAFPKGSDELRDKVNGALKTLRENGTYNEIYKKWFGTEPK
modifications: Dy(DOTA-malN) at Cys72
notes: swArM: Dy(DOTA-mal^N) on T72C/A126D double variant of GlnBP
B2: [Gd(DTPA-malN)]72: swArM: Gd complex of maleimide-functionalized DTPA attached at Cys72 of T72C-GlnBP (conjugate, UniProt P0AEQ3 23-248, looked up, variant T72C)
Glutamine-binding periplasmic …: B1 Glutamine-binding periplasmic … with D126A
modifications: Gd(DTPA-mal) at Cys72
notes: swArM: Gd complex of maleimide-functionalized DTPA attached at Cys72 of T72C-GlnBP
B3: T72C-Q183Y: T72C/Q183Y double variant of GlnBP, unconjugated (protein, UniProt P0AEQ3 23-248, looked up, variant T72C Q183Y)
Glutamine-binding periplasmic …: B1 Glutamine-binding periplasmic … with D126A, Q183Y
B4: T72C: single-Cys T72C variant of E. coli glutamine-binding protein, unconjugated (protein, UniProt P0AEQ3 23-248, looked up, variant T72C)
Glutamine-binding periplasmic …: B1 Glutamine-binding periplasmic … with D126A
B5: T72C-G119R: T72C/G119R double variant of GlnBP, unconjugated (protein, UniProt P0AEQ3 23-248, looked up, variant T72C G119R)
Glutamine-binding periplasmic …: B1 Glutamine-binding periplasmic … with G119R, D126A
B6: [Gd(DOTA-mal^N)]72: swArM: Gd(DOTA-mal^N) metallocofactor covalently attached at Cys72 of T72C E. coli glutamine-binding protein (GlnBP) (conjugate, UniProt P0AEQ3 23-248, looked up, variant T72C)
Glutamine-binding periplasmic …: B1 Glutamine-binding periplasmic … with D126A
modifications: Gd(DOTA-malN) at Cys72
B7: [Dy(DOTA-mal^N)]72-A126Y: swArM: Dy(DOTA-mal^N) on T72C/A126Y double variant of GlnBP (conjugate, UniProt P0AEQ3 23-248, looked up, variant T72C A126Y)
Glutamine-binding periplasmic …: B1 Glutamine-binding periplasmic … with D126Y
modifications: Dy(DOTA-malN) at Cys72
notes: swArM: Dy(DOTA-mal^N) on T72C/A126Y double variant of GlnBP
B8: T72C-A126Y: T72C/A126Y double variant of GlnBP, unconjugated (protein, UniProt P0AEQ3 23-248, looked up, variant T72C A126Y)
Glutamine-binding periplasmic …: B1 Glutamine-binding periplasmic … with D126Y
B9: [Dy(DOTA-mal^N)]72-N127Y: swArM: Dy(DOTA-mal^N) on T72C/N127Y double variant of GlnBP (conjugate, UniProt P0AEQ3 23-248, looked up, variant T72C N127Y)
Glutamine-binding periplasmic …: B1 Glutamine-binding periplasmic … with D126A, N127Y
modifications: Dy(DOTA-malN) at Cys72
notes: swArM: Dy(DOTA-mal^N) on T72C/N127Y double variant of GlnBP
B10: [Dy(DOTA-malN)]72-G119R: swArM: Dy(DOTA-mal^N) on T72C/G119R double variant of GlnBP as printed in Table S1 (conjugate, UniProt P0AEQ3 23-248, looked up, variant T72C G119R)
Glutamine-binding periplasmic …: B1 Glutamine-binding periplasmic … with G119R, D126A
modifications: Dy(DOTA-malN) at Cys72
B11: [Dy(DOTA-malN)]72-Q183Y: swArM: Dy(DOTA-mal^N) on T72C/Q183Y double variant of GlnBP (conjugate, UniProt P0AEQ3 23-248, looked up, variant T72C Q183Y)
Glutamine-binding periplasmic …: B1 Glutamine-binding periplasmic … with D126A, Q183Y
modifications: Dy(DOTA-malN) at Cys72
notes: swArM: Dy(DOTA-mal^N) on T72C/Q183Y double variant of GlnBP
B12: T72C-A126D: T72C/A126D double variant of GlnBP, unconjugated (protein, UniProt P0AEQ3 23-248, looked up, variant T72C A126D)
Glutamine-binding periplasmic …: B1 Glutamine-binding periplasmic …

experiment: Isothermal titration calorimetry (ITC) of Gln binding to GlnBP variants and swArMs; details: PBS buffer pH 7.4, 37 °C

| Molecule | n (ITC binding stoichiometry) | ΔH of Gln dissociation [kJ/mol] | ΔS of Gln dissociation [J/mol⋅K] |
| --- | --- | --- | --- |
| B1 | 0.97 | – | – |
| B2 | 1.0 | – | – |
| B3 | 0.85 | – | – |
| B4 | 0.93 ± 0.01 | – | – |
| B5 | 1.0 | – | – |
| B6 | 0.9 ± 0.1 | – | – |
| B7 | 0.89 | -52 | -63 |
| B8 | 1.0 | -51 | -47 |
| B9 | 0.99 | – | – |
| B10 | 0.73 | – | 79 |
| B11 | 0.89 | – | – |
| B12 | 1.1 | – | – |

Residue numbers refer to the chain shown, from its start. Names and notes keep the numbering of the source.
